In PMC5502268, “DNA Methylation Influences Chlorogenic Acid Biosynthesis in Lonicera japonica by Mediating LjbZIP8 to Regulate Phenylalanine Ammonia-Lyase 2 Expression”:
For at least one entry, the source does not settle the construct or the ends of the probe. A negative result means that nothing was seen under these conditions. For some of these results: At least one result comes from cells or an extract, where the contact may be indirect.

Chains of the proteins cited; added tags and fusions are not shown.
UniProt P08515, whole entry: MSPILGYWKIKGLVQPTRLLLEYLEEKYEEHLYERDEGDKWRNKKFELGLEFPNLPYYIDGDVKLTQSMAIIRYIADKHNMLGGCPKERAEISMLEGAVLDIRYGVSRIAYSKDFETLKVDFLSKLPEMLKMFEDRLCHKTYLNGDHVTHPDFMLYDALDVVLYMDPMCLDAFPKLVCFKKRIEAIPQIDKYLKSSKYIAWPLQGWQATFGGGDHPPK

Tests used:
Test in all cases: EMSA
GST (empty pGEX-4T-1) = GST (empty pGEX-4T-1) (UniProt P08515); conditions: crude E. coli protein, empty vector; 40 fmol biotin probe, 15 fmol protein, 0 or 4 pmol competitor, room temperature 20 min, Pierce LightShift kit 20148; binding buffer, salt and pH not stated; protein in an extract; protein details: GST
[1] = system: rLjbZIP1 (Lonicera japonica var. chinensis); conditions: 40 fmol biotin probe, 15 fmol protein, 0 or 4 pmol competitor, room temperature 20 min, Pierce LightShift kit 20148; binding buffer, salt and pH not stated; recombinant protein; protein details: GST (pGEX-4T-1)
[2] = system: rLjbZIP18 (Lonicera japonica var. chinensis); conditions: 40 fmol biotin probe, 15 fmol protein, 0 or 4 pmol competitor, room temperature 20 min, Pierce LightShift kit 20148; binding buffer, salt and pH not stated; recombinant protein; protein details: GST (pGEX-4T-1)
[3] = system: rLjbZIP4 (Lonicera japonica var. chinensis); conditions: 40 fmol biotin probe, 15 fmol protein, 0 or 4 pmol competitor, room temperature 20 min, Pierce LightShift kit 20148; binding buffer, salt and pH not stated; recombinant protein; protein details: GST (pGEX-4T-1)

Measured: binding result

CTCTCCTGTCCACGTGTCATCAAC (double strand) [LjPAL2 G-box probe]
no binding: all assays above
